According to article PMC9122930:
These are yes or no findings as the source states them, for the method shown. Binding seen in cells or lysates may run through a third protein. Some binding calls cover weakened binding; strength is not graded here. Sequences can lack the tags named with a protein. One block for each binder: values may come before it.

Columns and labels:
[1] = biological target: T1, Myc-tagged PLSCR1 (mouse) (UniProt Q9JJ00); assay: co-IP
T1 sequence: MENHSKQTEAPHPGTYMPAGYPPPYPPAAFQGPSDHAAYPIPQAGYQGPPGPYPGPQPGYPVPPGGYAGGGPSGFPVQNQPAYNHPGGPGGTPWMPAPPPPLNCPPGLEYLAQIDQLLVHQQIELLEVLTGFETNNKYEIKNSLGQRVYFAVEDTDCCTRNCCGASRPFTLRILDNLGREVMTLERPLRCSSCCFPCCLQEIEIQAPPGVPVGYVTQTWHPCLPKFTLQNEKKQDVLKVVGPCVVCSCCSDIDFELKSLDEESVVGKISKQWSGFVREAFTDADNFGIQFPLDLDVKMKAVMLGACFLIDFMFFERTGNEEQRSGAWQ

[2] = biological target: T2, Myc-tagged ILDR1 cytoplasmic domain (mouse) (UniProt Q8CBR1); assay: co-IP
T2 sequence: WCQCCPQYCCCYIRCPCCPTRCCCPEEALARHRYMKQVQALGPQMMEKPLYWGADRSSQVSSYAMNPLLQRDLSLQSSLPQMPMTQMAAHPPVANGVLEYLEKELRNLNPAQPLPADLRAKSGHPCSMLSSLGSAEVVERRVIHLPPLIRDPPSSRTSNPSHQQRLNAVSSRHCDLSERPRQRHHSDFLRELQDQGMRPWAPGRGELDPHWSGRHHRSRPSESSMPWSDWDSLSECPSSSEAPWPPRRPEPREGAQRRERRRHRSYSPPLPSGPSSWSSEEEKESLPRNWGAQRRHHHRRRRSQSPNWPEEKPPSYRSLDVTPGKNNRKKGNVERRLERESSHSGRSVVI

binding [1]: binds
B1: EGFP-tagged mouse ILDR1 cytoplasmic domain (domain or fragment, UniProt Q8CBR1-1 188-537)
chain: T2 sequence

binding [2]: binds
B2: EGFP-tagged PLSCR1 (protein, UniProt Q9JJ00 1-328)
chain: T1 sequence
